Measurements reported in the supplement of paper PMC6411743.
± gives the standard deviation of the averaged measurements. Only a part is listed here, and it is no random draw.

Legend:
Experiment in all cases: NP40-soluble protein abundance relative to vehicle (solubility fold change) (ratio); higher = more soluble protein in presence of AMP-PNP
PINX1 = molecular target: T1, PINX1 (UniProt Q96BK5)
T1 sequence (whole entry): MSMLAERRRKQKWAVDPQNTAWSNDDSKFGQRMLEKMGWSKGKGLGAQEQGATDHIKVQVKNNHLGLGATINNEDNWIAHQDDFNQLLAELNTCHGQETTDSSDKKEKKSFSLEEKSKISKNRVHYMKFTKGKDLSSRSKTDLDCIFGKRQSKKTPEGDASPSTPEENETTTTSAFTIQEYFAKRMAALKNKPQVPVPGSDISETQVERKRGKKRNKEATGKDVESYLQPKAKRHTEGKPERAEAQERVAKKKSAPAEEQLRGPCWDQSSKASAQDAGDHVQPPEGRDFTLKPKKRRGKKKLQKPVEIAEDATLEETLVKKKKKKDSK
Outline: (§1)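 Each value is a fold change relative to the detergent-processed vehicle, calculated per replicate from vsn-normalised intensities. Jurkat crude lysate received eight concentrations (0.1 to 10 mM) for 10 min at room temperature and 3 min at 37 °C, then was solubilised in 0.8% NP40 with benzonase (60 min, 4 °C). The ultracentrifuged supernatant was TMT-labelled and run by LC-MS/MS in three independent experiments.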

RBM17 = molecular target: T2, RBM17 (UniProt Q96I25)
T2 sequence (whole entry): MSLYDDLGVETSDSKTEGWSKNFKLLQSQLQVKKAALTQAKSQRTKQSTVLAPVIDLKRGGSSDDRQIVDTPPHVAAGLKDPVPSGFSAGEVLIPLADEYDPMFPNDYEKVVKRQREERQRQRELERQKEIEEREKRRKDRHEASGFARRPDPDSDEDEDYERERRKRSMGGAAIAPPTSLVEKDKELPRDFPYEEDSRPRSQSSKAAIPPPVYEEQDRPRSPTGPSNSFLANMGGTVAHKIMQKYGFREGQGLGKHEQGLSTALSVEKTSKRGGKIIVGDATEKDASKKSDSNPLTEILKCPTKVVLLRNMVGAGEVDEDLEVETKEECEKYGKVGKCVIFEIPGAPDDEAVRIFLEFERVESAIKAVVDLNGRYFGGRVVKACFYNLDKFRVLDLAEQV
Outline: as §1

RNF25 = molecular target: T3, RNF25 (UniProt Q96BH1)
T3 sequence (whole entry): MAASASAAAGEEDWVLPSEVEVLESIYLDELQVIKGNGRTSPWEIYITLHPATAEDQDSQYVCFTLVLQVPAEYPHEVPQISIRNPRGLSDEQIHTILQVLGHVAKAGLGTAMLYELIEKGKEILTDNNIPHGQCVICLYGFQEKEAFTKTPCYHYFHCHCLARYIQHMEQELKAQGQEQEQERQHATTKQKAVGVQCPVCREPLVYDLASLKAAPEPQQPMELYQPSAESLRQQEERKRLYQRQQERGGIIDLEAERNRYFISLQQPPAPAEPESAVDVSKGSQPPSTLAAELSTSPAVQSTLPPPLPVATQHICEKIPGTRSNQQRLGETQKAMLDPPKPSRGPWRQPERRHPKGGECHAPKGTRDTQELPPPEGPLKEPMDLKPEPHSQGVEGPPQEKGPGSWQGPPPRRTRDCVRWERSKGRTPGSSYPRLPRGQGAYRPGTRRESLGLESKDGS
Outline: as §1

[1] = molecular target: T4, UniProt Q969R2 and related entries
T4 sequence (whole entry): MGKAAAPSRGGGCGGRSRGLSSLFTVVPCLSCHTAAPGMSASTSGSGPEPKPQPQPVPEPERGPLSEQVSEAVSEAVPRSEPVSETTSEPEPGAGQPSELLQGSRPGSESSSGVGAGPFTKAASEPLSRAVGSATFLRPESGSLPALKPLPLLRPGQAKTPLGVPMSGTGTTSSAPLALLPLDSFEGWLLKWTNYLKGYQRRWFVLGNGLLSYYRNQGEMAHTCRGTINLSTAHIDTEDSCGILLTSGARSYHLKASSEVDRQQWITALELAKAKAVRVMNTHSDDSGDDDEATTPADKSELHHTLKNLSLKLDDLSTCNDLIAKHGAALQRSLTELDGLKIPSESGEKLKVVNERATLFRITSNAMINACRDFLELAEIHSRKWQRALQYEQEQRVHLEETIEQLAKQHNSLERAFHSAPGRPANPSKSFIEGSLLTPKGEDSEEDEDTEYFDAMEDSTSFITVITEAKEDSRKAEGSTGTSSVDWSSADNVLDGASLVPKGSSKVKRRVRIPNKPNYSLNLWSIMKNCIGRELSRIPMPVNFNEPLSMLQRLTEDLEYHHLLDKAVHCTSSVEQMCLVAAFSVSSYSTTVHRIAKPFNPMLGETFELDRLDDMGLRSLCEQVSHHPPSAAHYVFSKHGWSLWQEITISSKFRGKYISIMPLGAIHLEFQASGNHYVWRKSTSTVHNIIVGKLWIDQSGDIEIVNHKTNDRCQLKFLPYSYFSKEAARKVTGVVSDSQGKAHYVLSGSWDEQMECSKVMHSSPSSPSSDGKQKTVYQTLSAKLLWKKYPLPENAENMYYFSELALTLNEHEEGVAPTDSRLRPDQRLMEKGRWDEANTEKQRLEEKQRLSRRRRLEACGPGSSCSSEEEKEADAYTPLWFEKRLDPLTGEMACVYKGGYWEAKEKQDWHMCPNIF
Outline: as §1

[2] = molecular target: T5, UniProt Q969V3 and related entries
T5 sequence (whole entry): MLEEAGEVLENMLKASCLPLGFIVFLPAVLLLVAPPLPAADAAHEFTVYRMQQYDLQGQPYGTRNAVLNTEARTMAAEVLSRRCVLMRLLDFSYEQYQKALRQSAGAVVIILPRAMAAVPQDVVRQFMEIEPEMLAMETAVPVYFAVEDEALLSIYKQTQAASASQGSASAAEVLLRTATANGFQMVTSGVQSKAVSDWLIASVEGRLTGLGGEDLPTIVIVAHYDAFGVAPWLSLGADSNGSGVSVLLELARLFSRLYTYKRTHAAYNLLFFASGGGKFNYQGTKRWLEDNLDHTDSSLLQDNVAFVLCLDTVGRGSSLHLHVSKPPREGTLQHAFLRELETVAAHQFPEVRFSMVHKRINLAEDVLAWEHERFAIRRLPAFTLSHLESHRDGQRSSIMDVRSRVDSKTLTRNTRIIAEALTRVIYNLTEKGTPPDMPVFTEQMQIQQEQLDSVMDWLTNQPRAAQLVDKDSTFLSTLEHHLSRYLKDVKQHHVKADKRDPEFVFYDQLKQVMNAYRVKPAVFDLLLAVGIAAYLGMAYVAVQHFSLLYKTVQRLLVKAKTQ
Outline: as §1

Nc1ncnc2c1ncn2[C@@H]1O[C@H](COP(=O)(O)OP(=O)(O)NP(=O)(O)O)[C@@H](O)[C@H]1O [adenylyl imidodiphosphate]
NP40-soluble protein abundance (PINX1; concentration: 1mM): 1.15 ± 0.053
NP40-soluble protein abundance (PINX1; concentration: 2mM): 1.27 ± 0.034
NP40-soluble protein abundance (PINX1; concentration: 4mM): 1.36 ± 0.09
NP40-soluble protein abundance (PINX1; concentration: 6mM): 1.51 ± 0.057
NP40-soluble protein abundance (PINX1; concentration: 8mM): 1.59 ± 0.083
NP40-soluble protein abundance (PINX1; concentration: 10mM): 1.8 ± 0.079
NP40-soluble protein abundance (RBM17; concentration: 1mM): 1.06 ± 0.048
NP40-soluble protein abundance (RBM17; concentration: 2mM): 1.1 ± 0.046
NP40-soluble protein abundance (RBM17; concentration: 4mM): 1.09 ± 0.071
NP40-soluble protein abundance (RBM17; concentration: 6mM): 1.2 ± 0.055
NP40-soluble protein abundance (RBM17; concentration: 8mM): 1.18 ± 0.085
NP40-soluble protein abundance (RBM17; concentration: 10mM): 1.24 ± 0.11
NP40-soluble protein abundance (RNF25; concentration: 1mM): 0.984 ± 0.028
NP40-soluble protein abundance (RNF25; concentration: 2mM): 0.969 ± 0.033
NP40-soluble protein abundance (RNF25; concentration: 4mM): 0.9668 ± 0.0029
NP40-soluble protein abundance (RNF25; concentration: 6mM): 0.988 ± 0.034
NP40-soluble protein abundance (RNF25; concentration: 8mM): 0.987 ± 0.037
NP40-soluble protein abundance (RNF25; concentration: 10mM): 0.988 ± 0.022
NP40-soluble protein abundance ([1]; concentration: 1mM): 1.03 ± 0.035
NP40-soluble protein abundance ([1]; concentration: 2mM): 0.988 ± 0.055
NP40-soluble protein abundance ([1]; concentration: 4mM): 0.985 ± 0.038
NP40-soluble protein abundance ([1]; concentration: 6mM): 0.961 ± 0.032
NP40-soluble protein abundance ([1]; concentration: 8mM): 0.975 ± 0.021
NP40-soluble protein abundance ([1]; concentration: 10mM): 0.914 ± 0.069
NP40-soluble protein abundance ([2]; concentration: 1mM): 0.972 ± 0.026
NP40-soluble protein abundance ([2]; concentration: 2mM): 0.929 ± 0.079
NP40-soluble protein abundance ([2]; concentration: 4mM): 0.976 ± 0.018
NP40-soluble protein abundance ([2]; concentration: 6mM): 0.959 ± 0.029
NP40-soluble protein abundance ([2]; concentration: 8mM): 0.998 ± 0.016
NP40-soluble protein abundance ([2]; concentration: 10mM): 0.972 ± 0.037
